Laboratory results taken from US20030162942A1.
No constants are given. Whether binding was seen depends on the method and setting. Some results given as binding are weak or reduced against the parent protein; the word gives no strength.

By UniProt entry, the sequences of proteins in these tests, tags left out. Residues count along the entry.
UniProt P00750, residues 36-562: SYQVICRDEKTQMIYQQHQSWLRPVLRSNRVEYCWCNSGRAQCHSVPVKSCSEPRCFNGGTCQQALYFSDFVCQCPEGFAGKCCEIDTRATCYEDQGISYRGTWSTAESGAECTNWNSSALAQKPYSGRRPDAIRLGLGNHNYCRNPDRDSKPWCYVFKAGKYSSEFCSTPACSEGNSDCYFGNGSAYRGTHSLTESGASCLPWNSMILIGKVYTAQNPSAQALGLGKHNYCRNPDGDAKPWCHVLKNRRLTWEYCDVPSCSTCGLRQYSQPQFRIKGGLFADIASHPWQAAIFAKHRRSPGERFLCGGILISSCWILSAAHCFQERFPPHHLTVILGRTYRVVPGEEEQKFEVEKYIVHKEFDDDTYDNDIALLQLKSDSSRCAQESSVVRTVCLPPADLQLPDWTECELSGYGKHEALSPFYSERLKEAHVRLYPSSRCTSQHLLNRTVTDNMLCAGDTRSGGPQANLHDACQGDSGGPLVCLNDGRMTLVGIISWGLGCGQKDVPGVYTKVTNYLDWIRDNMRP

What was measured:
[1] = biological target: recombinant human tissue-type plasminogen activator (tPA) (human) (UniProt P00750); assay: affinity chromatography, #109 on Emphaze Ultralink beads, 1 M NaCl in all buffers
[2] = biological target: recombinant human tissue-type plasminogen activator (tPA) (human) (UniProt P00750); assay: affinity chromatography, #109 on EAH Sepharose 4B, tPA added to human plasma standard

binding [1]: binds
binding [2]: binds
B1: CMTI analogue #109 (free polypeptide expressed in Pichia pastoris) (designed binder)
chain: RLCPKTDLGCMKDSDCLAECVCLEHGYCG
